This note sets out measurements from the supplement of paper PMC6411743.

The chains behind the UniProt entries cited, without tags or fusion partners. Where a name states a change or a piece, a line headed by the entry shows the natural chain unless it says otherwise.
UniProt Q9Y2Y1: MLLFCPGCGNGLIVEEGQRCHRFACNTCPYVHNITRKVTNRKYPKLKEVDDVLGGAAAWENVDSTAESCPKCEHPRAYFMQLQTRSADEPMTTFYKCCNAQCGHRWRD
UniProt Q9Y2Q5, whole entry: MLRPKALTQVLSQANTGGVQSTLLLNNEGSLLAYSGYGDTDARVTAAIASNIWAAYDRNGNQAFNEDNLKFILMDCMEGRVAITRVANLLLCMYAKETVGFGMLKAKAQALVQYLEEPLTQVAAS
UniProt Q9UPY8, whole entry: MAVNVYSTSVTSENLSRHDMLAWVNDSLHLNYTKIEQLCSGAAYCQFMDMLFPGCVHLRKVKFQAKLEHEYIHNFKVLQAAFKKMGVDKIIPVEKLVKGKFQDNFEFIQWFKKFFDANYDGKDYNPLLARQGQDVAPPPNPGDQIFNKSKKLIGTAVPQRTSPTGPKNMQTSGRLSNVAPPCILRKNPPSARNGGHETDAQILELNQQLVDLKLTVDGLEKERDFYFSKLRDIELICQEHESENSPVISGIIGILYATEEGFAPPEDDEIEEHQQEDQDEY
UniProt Q9UBV2: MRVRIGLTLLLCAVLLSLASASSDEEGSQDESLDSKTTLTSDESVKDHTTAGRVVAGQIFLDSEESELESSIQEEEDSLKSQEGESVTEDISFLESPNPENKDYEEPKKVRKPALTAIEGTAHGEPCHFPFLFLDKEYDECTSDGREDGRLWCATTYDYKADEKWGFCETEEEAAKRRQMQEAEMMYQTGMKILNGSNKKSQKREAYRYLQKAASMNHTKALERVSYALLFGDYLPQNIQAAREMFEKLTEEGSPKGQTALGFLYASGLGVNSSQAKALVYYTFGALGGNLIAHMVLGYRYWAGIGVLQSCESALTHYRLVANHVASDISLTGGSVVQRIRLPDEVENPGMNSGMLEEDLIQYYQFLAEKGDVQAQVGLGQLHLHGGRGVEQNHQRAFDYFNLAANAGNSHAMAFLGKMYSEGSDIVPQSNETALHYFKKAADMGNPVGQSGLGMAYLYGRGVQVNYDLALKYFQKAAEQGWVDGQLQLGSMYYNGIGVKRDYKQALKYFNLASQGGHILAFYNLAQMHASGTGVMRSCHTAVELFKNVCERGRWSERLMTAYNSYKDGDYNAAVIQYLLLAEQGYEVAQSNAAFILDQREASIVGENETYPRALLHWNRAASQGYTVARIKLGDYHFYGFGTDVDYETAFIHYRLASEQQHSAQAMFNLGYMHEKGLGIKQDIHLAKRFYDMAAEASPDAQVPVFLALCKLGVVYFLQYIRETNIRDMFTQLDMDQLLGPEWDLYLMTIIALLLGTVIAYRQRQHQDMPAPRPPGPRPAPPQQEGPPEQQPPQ
UniProt Q9Y281, whole entry: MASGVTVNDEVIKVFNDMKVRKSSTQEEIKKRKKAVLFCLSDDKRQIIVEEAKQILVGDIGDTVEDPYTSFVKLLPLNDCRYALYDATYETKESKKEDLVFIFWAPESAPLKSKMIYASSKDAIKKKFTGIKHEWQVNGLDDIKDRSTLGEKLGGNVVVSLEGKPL
UniProt Q9Y383: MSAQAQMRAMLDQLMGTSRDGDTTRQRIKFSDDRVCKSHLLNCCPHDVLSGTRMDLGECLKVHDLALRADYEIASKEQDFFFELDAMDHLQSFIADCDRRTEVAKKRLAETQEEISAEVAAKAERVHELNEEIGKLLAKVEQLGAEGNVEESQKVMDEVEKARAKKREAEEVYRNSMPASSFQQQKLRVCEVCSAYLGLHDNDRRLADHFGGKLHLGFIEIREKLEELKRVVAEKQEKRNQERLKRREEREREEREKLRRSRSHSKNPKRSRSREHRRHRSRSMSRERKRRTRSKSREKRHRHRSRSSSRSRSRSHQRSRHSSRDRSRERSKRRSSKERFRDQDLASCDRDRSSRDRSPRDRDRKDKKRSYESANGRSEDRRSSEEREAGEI
UniProt Q9UNQ2: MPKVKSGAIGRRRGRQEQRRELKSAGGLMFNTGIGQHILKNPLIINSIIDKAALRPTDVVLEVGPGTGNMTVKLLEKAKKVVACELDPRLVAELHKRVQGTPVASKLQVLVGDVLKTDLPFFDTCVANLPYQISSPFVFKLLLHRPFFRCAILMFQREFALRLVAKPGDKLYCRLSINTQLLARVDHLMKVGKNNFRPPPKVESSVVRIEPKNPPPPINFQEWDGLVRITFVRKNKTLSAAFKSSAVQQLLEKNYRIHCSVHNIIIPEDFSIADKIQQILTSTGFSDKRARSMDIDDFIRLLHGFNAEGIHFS
UniProt Q9Y265, whole entry: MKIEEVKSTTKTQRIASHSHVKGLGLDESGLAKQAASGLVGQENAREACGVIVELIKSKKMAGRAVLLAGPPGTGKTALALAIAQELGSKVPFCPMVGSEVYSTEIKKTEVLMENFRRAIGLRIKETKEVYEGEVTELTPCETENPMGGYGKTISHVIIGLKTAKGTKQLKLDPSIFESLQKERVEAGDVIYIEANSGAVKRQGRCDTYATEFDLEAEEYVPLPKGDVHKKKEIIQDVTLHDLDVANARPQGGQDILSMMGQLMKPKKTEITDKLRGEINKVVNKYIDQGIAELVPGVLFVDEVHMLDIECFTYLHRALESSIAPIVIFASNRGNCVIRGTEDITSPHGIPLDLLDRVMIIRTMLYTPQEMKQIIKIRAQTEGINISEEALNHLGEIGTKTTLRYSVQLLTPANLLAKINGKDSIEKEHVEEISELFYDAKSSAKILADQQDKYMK
UniProt Q9UL12: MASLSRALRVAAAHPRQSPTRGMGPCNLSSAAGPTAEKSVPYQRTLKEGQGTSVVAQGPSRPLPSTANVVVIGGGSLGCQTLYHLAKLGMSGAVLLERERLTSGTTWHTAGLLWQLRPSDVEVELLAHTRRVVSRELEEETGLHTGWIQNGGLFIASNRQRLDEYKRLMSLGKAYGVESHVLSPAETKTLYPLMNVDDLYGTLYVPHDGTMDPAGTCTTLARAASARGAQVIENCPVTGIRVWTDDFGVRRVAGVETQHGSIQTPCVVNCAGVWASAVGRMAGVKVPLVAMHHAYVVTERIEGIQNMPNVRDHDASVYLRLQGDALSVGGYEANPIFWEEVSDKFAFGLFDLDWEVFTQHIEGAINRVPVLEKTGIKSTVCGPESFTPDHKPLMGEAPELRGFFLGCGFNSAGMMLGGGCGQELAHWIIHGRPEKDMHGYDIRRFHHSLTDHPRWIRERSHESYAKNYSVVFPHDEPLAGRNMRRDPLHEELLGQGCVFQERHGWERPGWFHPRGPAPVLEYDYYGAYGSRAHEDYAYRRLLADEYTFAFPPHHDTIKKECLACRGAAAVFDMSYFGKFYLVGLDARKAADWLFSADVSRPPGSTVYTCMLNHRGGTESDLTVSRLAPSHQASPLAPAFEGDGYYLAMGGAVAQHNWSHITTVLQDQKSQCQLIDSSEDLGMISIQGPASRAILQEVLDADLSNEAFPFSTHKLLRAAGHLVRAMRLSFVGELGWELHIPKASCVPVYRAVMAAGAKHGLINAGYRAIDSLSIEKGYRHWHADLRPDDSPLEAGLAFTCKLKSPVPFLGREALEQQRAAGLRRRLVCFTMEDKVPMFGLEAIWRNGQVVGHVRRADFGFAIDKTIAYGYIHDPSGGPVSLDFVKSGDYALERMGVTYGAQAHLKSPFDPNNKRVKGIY
UniProt Q9Y223: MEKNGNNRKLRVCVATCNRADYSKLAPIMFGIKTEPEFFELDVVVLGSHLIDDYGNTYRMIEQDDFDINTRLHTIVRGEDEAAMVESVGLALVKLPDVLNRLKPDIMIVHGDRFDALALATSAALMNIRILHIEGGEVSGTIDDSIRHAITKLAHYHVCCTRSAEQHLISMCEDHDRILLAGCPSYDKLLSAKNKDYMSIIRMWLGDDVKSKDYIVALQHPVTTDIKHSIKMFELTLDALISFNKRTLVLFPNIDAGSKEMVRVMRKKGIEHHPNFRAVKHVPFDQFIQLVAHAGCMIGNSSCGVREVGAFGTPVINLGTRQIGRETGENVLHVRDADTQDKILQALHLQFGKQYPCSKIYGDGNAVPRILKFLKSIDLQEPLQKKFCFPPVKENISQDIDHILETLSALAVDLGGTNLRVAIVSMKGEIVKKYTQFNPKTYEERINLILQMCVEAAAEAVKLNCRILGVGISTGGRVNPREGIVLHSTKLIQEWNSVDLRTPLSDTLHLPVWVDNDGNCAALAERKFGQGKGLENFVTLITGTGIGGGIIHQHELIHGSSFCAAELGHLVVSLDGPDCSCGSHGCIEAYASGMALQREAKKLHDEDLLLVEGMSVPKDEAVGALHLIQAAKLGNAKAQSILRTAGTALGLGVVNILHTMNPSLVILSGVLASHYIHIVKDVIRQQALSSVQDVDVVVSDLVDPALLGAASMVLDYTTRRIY
UniProt Q9UJT0: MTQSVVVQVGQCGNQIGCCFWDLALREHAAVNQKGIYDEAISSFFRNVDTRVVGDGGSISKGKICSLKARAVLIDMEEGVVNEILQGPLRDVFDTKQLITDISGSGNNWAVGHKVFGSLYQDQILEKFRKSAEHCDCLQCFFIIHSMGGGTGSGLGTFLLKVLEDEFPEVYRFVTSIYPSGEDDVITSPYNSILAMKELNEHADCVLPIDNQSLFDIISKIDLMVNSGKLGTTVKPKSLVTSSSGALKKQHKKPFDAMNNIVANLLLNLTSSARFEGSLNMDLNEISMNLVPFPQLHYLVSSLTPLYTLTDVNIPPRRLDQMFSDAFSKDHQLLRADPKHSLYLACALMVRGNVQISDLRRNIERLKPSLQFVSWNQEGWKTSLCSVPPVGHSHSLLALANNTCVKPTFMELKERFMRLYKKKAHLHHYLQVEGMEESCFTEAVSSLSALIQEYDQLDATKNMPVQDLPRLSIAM
UniProt Q9Y2W1: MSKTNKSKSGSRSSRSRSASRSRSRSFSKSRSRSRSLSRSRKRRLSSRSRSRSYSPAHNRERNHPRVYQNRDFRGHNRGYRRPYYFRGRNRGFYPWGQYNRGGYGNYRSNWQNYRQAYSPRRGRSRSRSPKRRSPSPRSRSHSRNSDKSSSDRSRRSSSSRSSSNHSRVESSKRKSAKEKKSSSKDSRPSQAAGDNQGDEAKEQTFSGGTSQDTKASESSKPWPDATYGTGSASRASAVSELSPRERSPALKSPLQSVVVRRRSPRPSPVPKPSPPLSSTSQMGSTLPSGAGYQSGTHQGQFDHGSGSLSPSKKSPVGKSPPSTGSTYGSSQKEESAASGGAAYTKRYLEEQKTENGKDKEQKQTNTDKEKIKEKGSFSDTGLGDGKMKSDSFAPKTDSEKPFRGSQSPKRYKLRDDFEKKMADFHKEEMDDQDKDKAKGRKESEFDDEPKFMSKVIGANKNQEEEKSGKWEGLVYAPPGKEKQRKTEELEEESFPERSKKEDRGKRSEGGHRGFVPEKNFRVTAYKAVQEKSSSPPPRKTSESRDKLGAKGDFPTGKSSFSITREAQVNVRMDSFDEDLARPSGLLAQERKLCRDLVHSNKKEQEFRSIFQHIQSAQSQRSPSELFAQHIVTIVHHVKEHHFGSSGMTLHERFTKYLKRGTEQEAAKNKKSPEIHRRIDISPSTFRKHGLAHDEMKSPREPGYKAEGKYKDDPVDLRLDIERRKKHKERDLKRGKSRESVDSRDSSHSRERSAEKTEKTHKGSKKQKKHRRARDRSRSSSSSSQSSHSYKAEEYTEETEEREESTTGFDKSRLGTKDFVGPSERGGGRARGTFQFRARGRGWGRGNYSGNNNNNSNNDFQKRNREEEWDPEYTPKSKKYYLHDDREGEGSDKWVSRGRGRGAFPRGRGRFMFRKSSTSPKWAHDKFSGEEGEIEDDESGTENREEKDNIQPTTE
UniProt Q9Y285: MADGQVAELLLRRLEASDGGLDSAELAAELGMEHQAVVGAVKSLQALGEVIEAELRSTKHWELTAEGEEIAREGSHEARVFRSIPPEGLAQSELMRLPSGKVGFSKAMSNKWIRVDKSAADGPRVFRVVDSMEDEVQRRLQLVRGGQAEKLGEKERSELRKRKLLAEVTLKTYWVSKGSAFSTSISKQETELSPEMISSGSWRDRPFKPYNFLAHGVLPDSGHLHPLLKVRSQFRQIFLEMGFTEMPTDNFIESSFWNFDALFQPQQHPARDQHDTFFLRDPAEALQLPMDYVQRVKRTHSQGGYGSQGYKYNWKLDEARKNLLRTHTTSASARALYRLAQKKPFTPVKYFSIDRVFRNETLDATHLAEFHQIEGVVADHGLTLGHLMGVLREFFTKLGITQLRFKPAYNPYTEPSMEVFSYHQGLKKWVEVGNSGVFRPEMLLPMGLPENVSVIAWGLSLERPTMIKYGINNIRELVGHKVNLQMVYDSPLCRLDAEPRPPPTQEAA

± gives the standard deviation of the averaged measurements. Only a part is listed here, and it is no random draw.

Compound in the test: Nc1ncnc2c1ncn2[C@@H]1O[C@H](COP(=O)(O)OP(=O)(O)NP(=O)(O)O)[C@@H](O)[C@H]1O [adenylyl imidodiphosphate]
Nature of the test: NP40-soluble protein abundance relative to vehicle (solubility fold change) (ratio); higher = more soluble protein in presence of AMP-PNP. Put shortly:
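Values are fold changes against the detergent-processed vehicle, based on vsn-normalised intensities. Jurkat crude lysate was treated at eight concentrations from 0.1 to 10 mM (10 min at room temperature, then 3 min at 37 °C), solubilised with 0.8% NP40 and benzonase, ultracentrifuged and analysed by TMT-labelled LC-MS/MS over three independent experiments.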

For the target POLR3K (UniProt Q9Y2Y1), the NP40-soluble protein abundance reads like this: (concentration: 1mM) 0.995 ± 0.013; (concentration: 2mM) 0.984 ± 0.0094; (concentration: 4mM) 0.997 ± 0.019; (concentration: 6mM) 0.9873 ± 0.0017; (concentration: 8mM) 0.994 ± 0.014; (concentration: 10mM) 0.9952 ± 0.007.
For the target UniProt Q9Y2Q5 and related entries, the NP40-soluble protein abundance came out at 0.979 ± 0.018 (concentration: 1mM); 0.9754 ± 0.0018 (concentration: 2mM); 0.997 ± 0.015 (concentration: 4mM); 1.05 ± 0.057 (concentration: 6mM); 1.07 ± 0.039 (concentration: 8mM); 1.019 ± 0.0059 (concentration: 10mM).
For UniProt Q9UL18, the NP40-soluble protein abundance runs as follows: (concentration: 1mM) 1.02 ± 0.011; (concentration: 2mM) 0.979 ± 0.026; (concentration: 4mM) 0.983 ± 0.011; (concentration: 6mM) 1.02 ± 0.042; (concentration: 8mM) 1.04 ± 0.017; (concentration: 10mM) 1.03 ± 0.019.
For MAPRE3 (UniProt Q9UPY8), the NP40-soluble protein abundance by setting is: (concentration: 1mM) 1.02 ± 0.023; (concentration: 2mM) 1.06 ± 0.019; (concentration: 4mM) 1.03 ± 0.02; (concentration: 6mM) 1.02 ± 0.08; (concentration: 8mM) 1.02 ± 0.065; (concentration: 10mM) 1.02 ± 0.033.
With SEL1L (UniProt Q9UBV2), the NP40-soluble protein abundance runs as follows: (concentration: 1mM) 1 ± 0.017; (concentration: 2mM) 1 ± 0.054; (concentration: 4mM) 0.984 ± 0.013; (concentration: 6mM) 1.03 ± 0.035; (concentration: 8mM) 0.993 ± 0.026; (concentration: 10mM) 0.996 ± 0.037.
As for CFL2 (UniProt Q9Y281), the NP40-soluble protein abundance runs as follows: (concentration: 1mM) 0.985 ± 0.012; (concentration: 2mM) 0.963 ± 0.024; (concentration: 4mM) 1.01 ± 0.022; (concentration: 6mM) 0.995 ± 0.044; (concentration: 8mM) 1.03 ± 0.03; (concentration: 10mM) 1.02 ± 0.023.
For the target LUC7L2 (UniProt Q9Y383), the NP40-soluble protein abundance (concentration: 1mM) came to 1.03 ± 0.047; the NP40-soluble protein abundance (concentration: 2mM) is 1.08 ± 0.07; the NP40-soluble protein abundance (concentration: 4mM) worked out at 0.983 ± 0.023; the NP40-soluble protein abundance (concentration: 6mM) came out at 0.999 ± 0.054; the NP40-soluble protein abundance (concentration: 8mM) amounted to 1.01 ± 0.044; the NP40-soluble protein abundance (concentration: 10mM) is 1.2 ± 0.11.
In the case of C19orf53 (UniProt Q9UNZ5), the NP40-soluble protein abundance (concentration: 1mM) turned out to be 1.01 ± 0.026; the NP40-soluble protein abundance (concentration: 2mM) was 1.06 ± 0.097; the NP40-soluble protein abundance (concentration: 4mM) was found to be 1.04 ± 0.043; the NP40-soluble protein abundance (concentration: 6mM) is 1.09 ± 0.032; the NP40-soluble protein abundance (concentration: 8mM) came to 1.11 ± 0.023; the NP40-soluble protein abundance (concentration: 10mM) is 1.18 ± 0.028.
In the case of UniProt Q9UNQ2, the NP40-soluble protein abundance worked out at 0.997 ± 0.019 (concentration: 1mM); 0.968 ± 0.059 (concentration: 2mM); 1.05 ± 0.06 (concentration: 4mM); 1.07 ± 0.029 (concentration: 6mM); 1.15 ± 0.044 (concentration: 8mM); 1.16 ± 0.058 (concentration: 10mM).
In the case of RUVBL1 (UniProt Q9Y265), the NP40-soluble protein abundance reads like this: (concentration: 1mM) 1.02 ± 0.04; (concentration: 2mM) 1 ± 0.078; (concentration: 4mM) 1.01 ± 0.044; (concentration: 6mM) 1.01 ± 0.081; (concentration: 8mM) 1.02 ± 0.083; (concentration: 10mM) 1.04 ± 0.12.
Regarding UniProt Q9UL12 and related entries, the NP40-soluble protein abundance came to 0.97 ± 0.022 (concentration: 1mM); 0.958 ± 0.046 (concentration: 2mM); 0.978 ± 0.017 (concentration: 4mM); 0.957 ± 0.012 (concentration: 6mM); 0.975 ± 0.014 (concentration: 8mM); 0.96 ± 0.011 (concentration: 10mM).
In the case of UniProt Q9Y223 and related entries, the NP40-soluble protein abundance (concentration: 1mM) was determined as 0.965 ± 0.033; the NP40-soluble protein abundance (concentration: 2mM) worked out at 0.909 ± 0.08; the NP40-soluble protein abundance (concentration: 4mM) came out at 0.955 ± 0.022; the NP40-soluble protein abundance (concentration: 6mM) was 0.932 ± 0.034; the NP40-soluble protein abundance (concentration: 8mM) came to 0.951 ± 0.028; the NP40-soluble protein abundance (concentration: 10mM) worked out at 0.918 ± 0.039.
Consider TUBE1 (UniProt Q9UJT0), for which the NP40-soluble protein abundance was determined as 0.9764 ± 0.0095 (concentration: 1mM); 0.965 ± 0.075 (concentration: 2mM); 1.01 ± 0.041 (concentration: 4mM); 0.983 ± 0.013 (concentration: 6mM); 1 ± 0.03 (concentration: 8mM); 0.987 ± 0.023 (concentration: 10mM).
On to THRAP3 (UniProt Q9Y2W1), for which the NP40-soluble protein abundance stood at 1.11 ± 0.014 (concentration: 1mM); 1.23 ± 0.1 (concentration: 2mM); 1.2 ± 0.034 (concentration: 4mM); 1.31 ± 0.044 (concentration: 6mM); 1.32 ± 0.028 (concentration: 8mM); 1.41 ± 0.03 (concentration: 10mM).
On to FARSA (UniProt Q9Y285), for which the NP40-soluble protein abundance stood at 0.999 ± 0.034 (concentration: 1mM); 0.963 ± 0.011 (concentration: 2mM); 1.07 ± 0.071 (concentration: 4mM); 1.09 ± 0.14 (concentration: 6mM); 1.12 ± 0.15 (concentration: 8mM); 1.13 ± 0.12 (concentration: 10mM).
